From PubChem BioAssay AID2685 (National Center for Advancing Translational Sciences (NCATS), 2010)
This is one part of the list. Shown are side measurements of this screen, not its main read-out; they come without a call. The list favours compounds with an active or inconclusive main result. Potencies come from curve fits of mixed quality, noted in brackets.

Assay: qHTS Assay for Lipid Storage Modulators in Drosophila S3 Cells;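 as to cell number change: cells counted by Cell Tracker Red CMTPX staining in the red channel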
Details: BODIPY lipid droplet fluorescence, 18-24 h; for cell number change: measured here: cell count max response, cells fed with added oleic acid
In short: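 Drosophila S3 cells got compounds at several concentrations plus oleic acid (400 uM solution). Laser-scanning cytometry with 488 nm excitation read lipid droplets at 500-530 nm and cells at 575-640 nm. Percent activity was relative to 20 uM Triacsin C.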

[1] = measured here: lipid fluorescence (Fed channel) AC50, cells fed with added oleic acid
[2] = measured here: cell number channel AC50, cells fed with added oleic acid

SMILES | cell number change [%] | AC50 [1] | AC50 [2]
CCN(CC)CCCN=C1N[C@@H](c2ccccc2)C(C(=O)OC)=C(C)N1CC | 22.8 | 6.51 µM [falling, partial curve, poor fit] | –
Cc1cc(NC(=O)COc2coc(CN3CCN(c4ccccc4)CC3)cc2=O)no1 | 2.09 | 2.31 µM [rising, partial curve] | –
C=CCOc1c(Cl)cc(C2NC(=O)NC(C)=C2C(=O)OC)cc1Cl (stereo unspecified) | 27.1 | 18.4 µM [rising, single point] | –
CC(=O)c1cccc(NC(=S)NCc2ccccc2)c1 | -13.9 | 29.1 µM [falling, single point] | –
CCOC(=O)COc1cc2c3c(c(=O)oc2cc1C)CCCC3 | 35.5 | 25.9 µM [rising, single point] | 23.1 µM [rising, single point]
Cc1cc(/C=N\NC(=O)c2cccs2)c(C)n1-c1ccc2ncccc2c1 | 12.3 | 2.91 µM [rising, partial curve, poor fit] | 0.00411 µM [rising, full curve, poor fit]
Cc1ccc(-c2nc(CS(=O)CC(=O)NCCCN3CC(C)CC(C)C3)c(C)o2)cc1 (stereo unspecified) | 2.5 | 0.58 µM [falling, full curve, poor fit] | –
Cc1ccc(NC(=S)NNC(=O)CSc2nc3ccccc3c(=O)n2-c2ccc(C)cc2)cc1 | 2.63 | 1.46 µM [rising, full curve] | –
Cn1c(-c2ccc3c(c2)OCO3)cnc1NCc1ccccc1Cl | -34.7 | 0.146 µM [falling, partial curve, poor fit] | 4.11 µM [falling, full curve, poor fit]
CC1=NN(C(=O)c2ccccc2Br)C(O)(c2ccc(Cl)cc2)C1 (stereo unspecified) | -12.1 | 29.1 µM [falling, single point] | –
COc1ccc(-c2nnc(NC(=O)c3cc(C)on3)s2)cc1 | – | 6.51 µM [rising, single point] | –
CN1CCC(OC(=O)COc2ccc(C(C)(C)C)cc2)CC1 | -26.1 | 0.731 µM [falling, full curve] | –
CC(C)C1Nc2ccc(C(=O)NC3CCCCC3)cc2NC1=O (stereo unspecified) | 1.71 | 18.4 µM [rising, single point] | –
O=[N+]([O-])c1cccc(/C=N/Nc2nc(C(Cl)(Cl)Cl)nc3ccccc23)c1 | -34.4 | – | 29.1 µM [falling, single point]
Cc1c(NC(=O)CN2CC(C)OC(C)C2)c(=O)n(-c2ccccc2)n1C (stereo unspecified) | -16.3 | 3.66 µM [falling, full curve] | 2.59 µM [falling, single point]
COc1ccc(/C=C/C(=O)C(C)(C)C)cc1OC | -1.85 | 29.1 µM [falling, single point] | –
Cc1cccc(Oc2coc3cc(OC(=O)c4cncc(Br)c4)ccc3c2=O)c1 | -48.4 | 0.164 µM [rising, full curve, poor fit] | 0.184 µM [falling, full curve]
COc1ccc(C(CC(=O)O)NS(=O)(=O)c2ccc3c(c2)N(C(C)=O)CC(C)O3)cc1 (stereo unspecified) | -9.79 | 0.00517 µM [falling, full curve, poor fit] | –

A draw from above in order of molecular weight, rising.
SMILES | cell number change [%] | AC50 [1] | AC50 [2]
O=[N+]([O-])c1cccc(/C=N/Nc2nc(C(Cl)(Cl)Cl)nc3ccccc23)c1 | -34.4 | – | 29.1 µM [falling, single point]
COc1ccc(C(CC(=O)O)NS(=O)(=O)c2ccc3c(c2)N(C(C)=O)CC(C)O3)cc1 (stereo unspecified) | -9.79 | 0.00517 µM [falling, full curve, poor fit] | –
Cc1cccc(Oc2coc3cc(OC(=O)c4cncc(Br)c4)ccc3c2=O)c1 | -48.4 | 0.164 µM [rising, full curve, poor fit] | 0.184 µM [falling, full curve]

Next part.

SMILES | cell number change [%] | AC50 [1] | AC50 [2]
CCOC(=O)c1c(NC(=O)CSc2nnc(C)s2)sc2c1CCC(CC)C2 (stereo unspecified) | -34.2 | 20.6 µM [falling, single point] | 20.6 µM [falling, single point]
CCc1nnc2n1N=C(c1ccc(Cl)cc1Cl)CS2 | 16.9 | – | –
O=C(COc1ccc(S(=O)(=O)N2CCOCC2)cc1Cl)NCCN1CCOCC1 | 11.1 | 6.51 µM [falling, single point] | –
COc1ccccc1-n1cnc2cc(NCc3cccs3)ccc21 | 22.2 | 1.46 µM [rising, full curve] | 3.66 µM [rising, partial curve, poor fit]
COc1ccc(NC(=O)COC(=O)c2ccc(F)cc2F)cc1 | -49.7 | – | 16.4 µM [falling, single point]
C/C(=C\C(=O)C(F)(F)F)Nc1ccc(C(F)(F)F)cc1 | -109 | 16.4 µM [falling, partial curve] | –
Cc1cc(NC(=O)c2cnn3c(C(F)(F)F)cc(-c4ccc(Br)cc4)nc23)no1 | 45.6 | 0.731 µM [rising, partial curve] | 0.731 µM [rising, full curve, poor fit]
COc1ccc(/C=N/NC(=O)c2ccn[nH]2)cc1CN1CCOCC1 | -26.6 | – | 0.116 µM [falling, full curve, poor fit]
CCCCCCCCNC(=S)NCCN1CCCCC1 | – | – | 0.92 µM [falling, full curve, poor fit]
CC(C)c1ccc(NC(=O)C2CCCN(S(=O)(=O)c3ccc4c(c3)C(C)(C)C(=O)N4C)C2)cc1 (stereo unspecified) | 19.5 | 29.1 µM [falling, single point] | –
Cc1nc2ccccc2n1Cc1ccccc1Br | 2.85 | 20.6 µM [falling, single point] | –
Cc1ccc(S(=O)(=O)N2CC(O)CC2C(=O)Nc2ccc3c(c2)CCC3)cc1 (stereo unspecified) | 14.4 | 29.1 µM [rising, single point] | –
O=C1OC(c2ccc(F)cc2)=N/C1=C\C=C/c1ccccc1 | 24.5 | 11.6 µM [rising, partial curve] | –
Cc1cc(NC(=O)CSc2nc3cc(Cl)ccc3c(=O)n2C(C)C)no1 | 53.5 | – | 3.66 µM [rising, partial curve]
COc1cccc(C(=O)c2c(C)c(CCC#N)n3ccccc23)c1 | 16.6 | 0.116 µM [falling, partial curve, poor fit] | –
Cc1ccc(N2CC(C(=O)N3CCN(Cc4ccc5c(c4)OCO5)CC3)CC2=O)cc1 (stereo unspecified) | 2.17 | 0.58 µM [rising, single point] | –
CC1=CC(C)C2(CO)COC(c3ccccc3O)C1C2C (stereo unspecified) | -30.3 | – | 29.1 µM [falling, single point]
COc1ccccc1C1Nc2ccccc2NC2=C1C(=O)CC(C)(C)C2 (stereo unspecified) | – | 0.0411 µM [falling, full curve, poor fit] | –
